# Test results taken from PubChem BioAssay AID1347423 (Functional Genomics Laboratory (NCATS/FGL), 2020).
# In all, about 52,000 sequences went through this assay and about 210 (0.4%) were called active.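 The calls were made as follows: active = gene whose silencing raises cell survival under the drug, median off-target-corrected z-score across its silencing RNAs 2 or more; inactive = the rest.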 The list shows a part of the results.
# Assay: Resistance to Poly (ADP-Ribose) Polymerase inhibitor: Gene Identification via Genome-wide siRNA Screen
# Details: mouse BRCA2 R2336H ES cells, olaparib, CellTiter-Glo viability; hits give high values
# Method in brief: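 Mouse BRCA2 R2336H ES cells were reverse-transfected with siRNA (20 nM final), treated at 48 h with 500 nM olaparib, and read by CellTiter-Glo after 72 h. Scores: MAD-based z per siRNA, median per gene, seed off-target correction.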
row,Sequence,z-score
1,GCCCAUGUGGACUUCUAUGTT against Spr,inactive: -1.05
2,GGGUCAUGAAAAAACAUUATT against 1810044O22Rik,inactive: -0.443
3,GGUCAGUCUACUUUUCCACTT against Tas2r108,inactive: -0.732
4,GGAACUCCUAGCACUGAAATT against 4932408F19Rik,inactive: -0.0292
5,GGUAGGAUGAGUUGAAGAGTT against AF366264,inactive: -0.526
6,GGUUUGUAUCUUAAAUGCCTT against Tdpoz4,inactive: 0.83
7,GGAAGAGAGGACCAUGAAGTT against Usp18,active: 2.69
8,GGUCUAGUAGGAUUUCUAUTT against Nid1,inactive: 0.161
9,GGGUGAAAAUGGCAUUGUUTT against Col1a2,inactive: -0.199
10,GGAUGCAUAUGAAUUUGCUTT against Brdt,inactive: -0.824
11,GGUCCUGUCUAAAGCUCAATT against Efna5,inactive: -1.9
12,GCAGAUUGCUCAGAUUACCTT against Brip1,inactive: 1.8
13,CCUGUUGGCCAUUUCCUAGTT against Zdhhc21,inactive: 0.386
14,CCAGCCAGACUGAAAAAGCTT against Gm1574,inactive: -0.156
15,GGACUGAAGGAUGCCUCAATT against BC016201,inactive: -0.788
16,CCUUCCUUUACCGAUACUCTT against BC026996,inactive: -0.449
17,AUUCAACCUGUCAAUUGUCTT against Hist1h2ae,inactive: 0.653
18,GGAAACACCAUGAAGAUGATT against Atpi,inactive: 0.185
19,CCUAGAAAGUCUUGGUGGATT against BC048651,inactive: 0.164
20,GGUUGAUAGGAUAUGGUCCTT against 9830147P19Rik,inactive: 1.45
21,GGUUCAAUAAGCACUUGGATT against Drpla,inactive: -1.05
22,GGUCUGAGCCUUGUCUUUATT against Ipf1,inactive: -0.695
23,GGAAAAAAGUCAAGAAAGUTT against Fstl5,inactive: -1.3
24,GGAUCUGUGAGUUUGUAGCTT against D930030D11Rik,inactive: -0.481
25,GGUCAAAUAGGGAACCUAGTT against B130050K08,inactive: -0.566
26,GGUGAUUGGUGUAAAAUCUTT against Gdi3,inactive: 1.61
27,GGUUUAGGGUCAAGAUAUUTT against Ttf2,inactive: -0.208

row,Sequence,z-score
1,GGAAGAAGAAAAGAUUCUGTT against Ddx41,inactive: -0.521
2,GGAACUUUCUAAAGUGUUUTT against D13Wsu50e,inactive: 0.893
3,GGAUAAGUCACAGGUCACUTT against 2300003C06Rik,inactive: 1.11
4,GGGACUGGAUUGUUGUUGUTT against Slc40a1,inactive: 0.255
5,GAAACUUUGAGUCCUCCAGTT against 2610510B01Rik,inactive: 0.452
6,GGGUCUUUCACUACGACAGTT against Vnn1,inactive: 0.93
7,GGAUGAACACUGUUACAAATT against Tusc3,inactive: 0.384
8,CCAGCUACGACGUAACUGATT against Rpl3l,inactive: -1.28
9,GGUCCGAUUUGAUCAGCGUTT against Smpd2,inactive: 0.744
10,GGACUUCAGCUCCAGGCUATT against Cdk5rap1,inactive: -1.17
11,GCAAUACCACCAAGAAAUATT against Zcchc8,inactive: 1.16
12,GGUAGAAACUGACCACAUATT against Pdcd8,inactive: -0.48
13,GGAUAUUUAUUGUAUCCCATT against Col8a1,inactive: -0.318
14,GGAGCAGAAACUUGUCAAATT against Pik3c2g,inactive: 1.09
15,GGUCAAAGACUCUUCUGAUTT against 2810430M08Rik,inactive: -0.729
16,GGACUUCUUAACCGCCCUGTT against Sirt5,inactive: -1.03
17,CGGCCUUAUCCAGUUAUGATT against 1700019B16Rik,inactive: -0.321
18,GGCCCUAUUAGAGAUAAAATT against Robo3,inactive: -0.166
19,GGAGGAGUUCCAGAUCCACTT against Pald,inactive: -0.913
20,GGUUCAGACAACUCAGUGGTT against Pbx1,inactive: -2.38
21,GGGAUGGGACCAUCAAUCUTT against Cib1,inactive: 1.25
22,GCAAAUUAACAGAGUGUCCTT against Dnase1l2,inactive: -0.318
23,GGCUCUUUCGAUUUCGGCATT against Unc50,inactive: -0.423
24,GGAAUGAACCAUAUGUAGCTT against Kcnq3,inactive: 0.743
25,GGAAACCAAACUGCUAUCUTT against Olfr1324,inactive: -0.0788
26,GGAGCUAGUUCUAAGCCCUTT against Nrm,inactive: 0.7
27,GGUUAGGUCUAACCAUUGATT against A630005I04Rik,inactive: -1.42

# Given bar-delimited: entries from further up.
row | Sequence | z-score
2 | GGAACUUUCUAAAGUGUUUTT against D13Wsu50e | inactive: 0.893
15 | GGUCAAAGACUCUUCUGAUTT against 2810430M08Rik | inactive: -0.729
23 | GGCUCUUUCGAUUUCGGCATT against Unc50 | inactive: -0.423

# Another view of part of the listing above.
row | Sequence | z-score
11 | GCAAUACCACCAAGAAAUATT against Zcchc8 | inactive: 1.16
14 | GGAGCAGAAACUUGUCAAATT against Pik3c2g | inactive: 1.09
18 | GGCCCUAUUAGAGAUAAAATT against Robo3 | inactive: -0.166
21 | GGGAUGGGACCAUCAAUCUTT against Cib1 | inactive: 1.25

# Remaining list, next part

row,Sequence,z-score
1,GCCUCCAUUUCUUGGACGATT against Mpg,inactive: -1.36
2,GGAAACCAAGAUUUCUCAGTT against Tyro3,inactive: 1.21
3,CGAGAUUUGUAACAAGUCATT against Dr1,inactive: 1.81
4,CCAUGACUACAACACAUACTT against 1500032D16Rik,inactive: -0.99
5,GGAAGUCUCCUACAAUGCCTT against Paxip1,inactive: -0.92
6,GCUGAGCCGUGAGUUCAAUTT against Trp63,inactive: 0.0322
7,GCGACGAAGAUGUCCUGUUTT against Plxna2,inactive: -2.75
8,GCAACCAUCGAACUCAAGGTT against Smarca4,inactive: -1.52
9,GGCCUCUUUGGAUCUAAGCTT against Nupl1,inactive: -0.209
10,GCAGAUCUAUAACAUUACATT against Zfyve20,inactive: -2.35
11,GGCUCUGUAUUAAAGAGUUTT against AI225782,inactive: 0.11
12,GCUCUAAAUGAACAUCUCATT against Snai3,inactive: 0.979
13,GGAGCUAGAGACAUUGUGCTT against Phf15,inactive: 1.58
14,GGCCAAGGACAUUAUAAAUTT against Scly,inactive: 0.729
15,GGACAUAACAUACAUCUCUTT against Sdf4,inactive: 1.51
16,GGAAUCAAAUGACUAAGAATT against Mcl1,inactive: -1.2
17,GGGUAACUAUUGGACUAACTT against Gabrq,inactive: 0.269
18,CGAUAAGAAAAGCUUGUUGTT against 6330412F12Rik,inactive: -0.0564
19,GAAGCCUCUCUAUGUGCACTT against V1rc19,inactive: -0.226
20,GCGAAUGCAUGAAAACUCATT against AU019823,inactive: -0.494
21,GGUUCUACUGGAGUCCUGGTT against Cd6,inactive: -0.982
22,GCUGCUGUGGCUUUUGUGGTT against 1190002L16Rik,inactive: 0.656
23,GGUAGUGAAUGAACUCUUUTT against Bcl2l1,inactive: -1.9
24,GGAAAAGAAAAAGUUGGGCTT against 3100004P22Rik,inactive: 0.415
25,GGUAUAUUGCCAUAUGUAATT against Olfr731,inactive: -1.01
26,GCAACAAUUCUAACAGCUGTT against Tmhs,inactive: -0.349
27,GGAAAUCGUGCGUGGCUACTT against Phpt1,inactive: 0.0394

row,Sequence,z-score
1,GCACAAGCGAAGAAGUUUGTT against Ube2i,inactive: -1.33
2,GCGGAUUGUCUUCCUAGACTT against 1500002O20Rik,inactive: 1.34
3,GCUGACCUAUUAUCAGAAGTT against 2610207F23Rik,inactive: 0.255
4,GCCAAUUUUGAACCACUACTT against Itga8,inactive: 3.32
5,UUCCAGAAACUACCUGUGCTT against Adcy1,inactive: 0.235
6,CCUCGAAUUUCAAUAUGCUTT against Ncam1,inactive: 0.33
7,GUCUUUCCCUAAAAACAGCTT against V1ra4,inactive: -0.639
8,GGCUCUGAAUAGUGGGCUGTT against Olfr974,inactive: -1.16
9,CGUUCCAAGGGAGAACACATT against Dab1,inactive: -0.542
10,GGAUCCUUCAGCAUUCUUATT against Egr2,inactive: -0.406
11,GGUAUUAACUUUGACAAUCTT against Ncoa5,inactive: -0.573
12,GGAGUUUCUGGUGUGAUCCTT against Fkbp9,inactive: -1.01
13,GCCAUCUUAAGUUGUAACUTT against Fgfr3,inactive: 0.68
14,AUGCCUAUACAAUUCUGUGTT against Olfr1167,inactive: -0.807
15,GGCAGUGAAAGCAAAGCUGTT against Cldn7,inactive: -0.838
16,GGAGGCUUUCUUCAGAAUGTT against V1rh1,inactive: 0.988
17,GGAAUUGAACGUAGUAGAGTT against 1110019N10Rik,inactive: -0.116
18,GGAACAAAAACCAUUGUGATT against Gng7,inactive: 0.229
19,GGCACUUAAAAGCCGUAUUTT against 4933440H19Rik,inactive: -1.24
20,GGAGGUUGUCAAGUCUCCATT against Tnfrsf8,inactive: 0.138
21,AUGGACCAAGGAAAAGUGUTT against Olfr951,inactive: -1.25
22,GCAUUACGUAAGAAUGGUUTT against Eif5a,inactive: 0.469
23,GGAUUCUGAAGGAACUUAATT against Slc8a1,inactive: -2.66
24,GGUGGUUGUUGUCAAGGACTT against Rbm3,inactive: 0.0111
